Experimental findings from patent US8580517 are described below.

Amino acid sequences for entries named in this document (tags omitted). A change or cut given only in a name is not applied to a line headed by its entry.
UniProt P63217: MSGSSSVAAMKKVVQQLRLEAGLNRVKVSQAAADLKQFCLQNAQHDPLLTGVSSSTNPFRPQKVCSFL
UniProt P62871: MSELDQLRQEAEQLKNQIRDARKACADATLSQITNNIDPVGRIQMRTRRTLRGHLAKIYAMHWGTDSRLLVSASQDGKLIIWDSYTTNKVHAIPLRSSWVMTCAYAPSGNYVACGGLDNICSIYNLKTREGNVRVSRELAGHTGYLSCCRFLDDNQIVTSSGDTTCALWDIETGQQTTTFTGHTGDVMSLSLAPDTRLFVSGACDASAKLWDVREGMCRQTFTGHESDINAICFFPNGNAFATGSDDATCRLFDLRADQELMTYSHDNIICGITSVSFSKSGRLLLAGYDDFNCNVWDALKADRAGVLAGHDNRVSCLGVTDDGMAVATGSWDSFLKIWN
UniProt P59215: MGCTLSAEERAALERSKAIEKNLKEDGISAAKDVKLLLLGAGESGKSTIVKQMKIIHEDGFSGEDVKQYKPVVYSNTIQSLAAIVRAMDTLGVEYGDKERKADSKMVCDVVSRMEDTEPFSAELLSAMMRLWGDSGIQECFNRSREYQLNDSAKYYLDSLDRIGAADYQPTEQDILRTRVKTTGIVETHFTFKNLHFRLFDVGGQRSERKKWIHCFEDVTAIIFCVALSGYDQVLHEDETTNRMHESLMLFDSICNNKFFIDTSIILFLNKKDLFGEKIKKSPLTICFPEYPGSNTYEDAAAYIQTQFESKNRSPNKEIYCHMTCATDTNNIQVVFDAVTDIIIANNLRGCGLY

Experiment [1] addresses bovine γ5 subunit (bovine) (UniProt P63217). In words: fluorescence microscopy, localisation at the plasma membrane.
Experiment [2] deals with T1, β1-YFP γ5 complex (YFP fused to the N terminus of bovine β1, with bovine γ5) (bovine) (UniProt P62871+P63217). The experiment can be described thus: acceptor photobleaching FRET in live M2-CHO cells.
Experiment [3] concerns the target T1, β1-YFP γ5 complex (YFP fused to the N terminus of bovine β1, with bovine γ5) (bovine). In words: FRET imaging of live cells.
The target is the same in experiment [4]. The experiment can be described thus: fluorescence microscopy, co-localisation at the plasma membrane.

No constants are given. Whether binding was seen depends on the method and setting. Some entries that bind do so weakly or less than the wild type.

On to “β1-YFP (YFP fused to the N terminus of the bovine β1 subunit) (from UniProt P62871 1-340)”, for which the binding entry in experiment [1] is “binds”.
On to “αo-CFP (rat G protein αo subunit with CFP inserted after Gly92) (from UniProt P59215 1-92; P59215 93-354)”, for which the binding entry in experiment [2], in experiment [3] and in experiment [4] was “binds” throughout.
